2 compounds from patent publication US5332531A, “Extracting metal ions with diphosphonic acid, or derivative thereof” (priority 1992, dated 1994) can be followed below.

A short description of data set [1]: Eu(III) complexation / stripping factor and equilibria by solvent extraction distribution ratio (HDEHP).
Data set [2] is described as follows: Distribution coefficient, TRUEX process solvent / nitric acid, uranium. The following applies: column B, 25° C.
Data set [3] can be described thus: Distribution coefficient, TRUEX process solvent / nitric acid, plutonium. Particulars: column B, 25° C.
Data set [4] is described as follows: Distribution coefficient, TRUEX process solvent / nitric acid, americium. The following applies: column B, 25° C.
Data set [5] is described as follows: Removal of uranium from groundwater, supported liquid membrane-based process. The following applies: initial 10^-4 M uranium, pH 2, 0.25M VDPA strip solution. An excerpt:
Aqueous solutions of the thermodynamically-unstable complexing agents of the present invention can be used in commercially available supported liquid membrane-based modules to strip metal ion contaminants from aqueous solution. Other devices using a porous membrane separating means can also be used. In general the aqueous solution containing uranium is in contact with one side of the porous membrane and the aqueous solution of the complexing agent is in contact with the other. A known organic extractant is permeated into the pores of the membrane to carry the metal ions from one side to the other. The aqueous solution of the complexing agent strips metal ions from the organic extractant in the pores, driving the extraction "reaction" toward removal of metal ions from the solution to be decontaminated.
Aqueous solutions of the thermodynamically-unstable complexing agent described in this application are useful as stripping agents in a supported liquid membrane-based process for removal of uranium contaminants from groundwater. In this process, groundwater containing 10^-4 M uranium is acidified to pH of 2 by addition of small amounts of sulfuric acid and passed through porous polypropylene hollow fibers in a supported liquid membrane module. The pores of the membrane are filled with 0.1M bis(2,4,4-trimethylpentyl)phosphinic acid in n-dodecane. […]

[6] abbreviates: 2.0M NaNO3/HNO3, [H+] 0.1M to 0.02M.

`CC(O)(P(=O)(O)O)P(=O)(O)O` [HEDPA, 1-hydroxyethane-1,1-diphosphonic acid]: in data set [1] (setting [6]), the “log β 121 (EuH2 L^1+)” value amounted to 4.58, the “log β 131 (EuH3 L^2+)” value came out at 6.43, the “log β 152 (EuH5 L2)” value is 9.76 and the “log β 162 (EuH6 L2^1+)” value turned out to be 11.47. The “log β 183 (EuH8 L3^1-)” value in data set [1] (setting [6]) was determined as 14.56. The “stoichiometric ratio of metal to complexing agent” value in data set [1] (Eu complexes) is 1:3 complexes.
With `C=C(P(=O)(O)O)P(=O)(O)O` [VDPA, vinylidenediphosphonic acid], in data set [1] (setting [6]), the “log β 121 (EuH2 L^1+)” value is 3.70. Further, the “log β 131 (EuH3 L^2+)” value in data set [1] (setting [6]) amounted to 5.71. Besides, in data set [1] (setting [6]), the “log β 142 (EuH4 L2^1-)” value is given as 6.33. Further, the “log β 162 (EuH6 L2^1+)” value in data set [1] (setting [6]) turned out to be 9.96. Further, the “Distribution Coefficient (organic/aqueous), Uranium B” value in data set [2] (HNO3 1 M) is recorded as 1.4 × 10^-1; in data set [2] (HNO3 5 M), 7; in data set [2] (HNO3 5 × 10^-1 M) it was 2.5 × 10^-2. Also, the “Distribution Coefficient (organic/aqueous), Plutonium B” value was 4.0 × 10^-3 in data set [3] (HNO3 1 M), 1.2 × 10^-4 in data set [3] (HNO3 1 × 10^-1 M), 4.0 × 10^-1 in data set [3] (HNO3 5 M) and 1.1 × 10^-3 in data set [3] (HNO3 5 × 10^-1 M). The “Distribution Coefficient (organic/aqueous), Americium B” value is on record as 3.5 in data set [4] (HNO3 1 M), 8 × 10^-5 in data set [4] (HNO3 1 × 10^-1 M), 9.0 in data set [4] (HNO3 5 M) and 6.8 × 10^-1 in data set [4] (HNO3 5 × 10^-1 M). In addition, the “uranium in the strip solution” value in data set [5] is listed as 10^-1 M. Also, the “uranium level in the groundwater after process” value in data set [5] is 10^-8 M.
